The test system of the assay is Salmonella enterica serovar Typhimurium SL1344. Briefly: bacterial growth OD600 after 18 h with compound and polymyxin B; higher = more bacterial growth (less inhibition). As to conditions: 50 µM, Mueller-Hinton broth.

Molecules are shown by their SMILES. This is one part of the list. Values are raw readings; no control value is given beside them.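 Primary screen: polymyxin B was added at a level permeabilizing Salmonella outer membranes while sparing inner membranes. DMSO wells, both with and without polymyxin B, established maximum growth. Plate-to-plate variation meant each plate was ranked on its own, and the lowest-OD600 compounds were selected as hits.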

In the case of `COCc1noc(-c2ccc(N(C)C(C)Cc3cc(C)ccn3)nc2)n1` (stereo not drawn), the “bacterial growth OD600” value (polymyxin B 1 µg/mL) amounted to 0.942.
For `Cc1ccc(Oc2ncccc2CNc2ncccn2)c(F)c1F`, the “bacterial growth OD600” value (polymyxin B 1 µg/mL) is 0.852.
For `COc1ccccc1-c1ccnc(-n2ncc(C(=O)NCCc3cccs3)c2C2CC2)n1`, the “bacterial growth OD600” value (polymyxin B 0.75 µg/mL) worked out at 0.55.
Take `C=CCC(=O)N1CCCC(Cc2ccccc2F)(C(=O)OCC)C1` (stereo not drawn): the “bacterial growth OD600” value (polymyxin B 1 µg/mL) came out at 0.869.
Consider `CCC1CN(CCNC(=O)CSC)Cc2cc(OC)ccc2O1` (stereo not drawn), for which the “bacterial growth OD600” value (polymyxin B 0.75 µg/mL) came to 0.835.
For `COc1ccc(CCC(=O)N2CCc3c(cnc(C)c3CNC(=O)c3ccc(C)s3)C2)cc1OC`, for the setting “polymyxin B 0.75 µg/mL”, the “bacterial growth OD600” value came to 0.78.
Consider `CN(Cc1cnn(-c2ccc(F)cc2)c1)Cc1nc(-c2ccc3c(c2)OCO3)no1`, for which the “bacterial growth OD600” value (polymyxin B 1 µg/mL) came to 1.05.
Same read-out and setting: as for `COc1cccc(C(=O)NCC2CCCN(C/C(C)=C/c3ccccc3)C2)c1OC` (stereo not drawn), the figure is 1.17.
Take `COc1ccc(CCN2CCCC(CN(C)C(=O)c3cc(F)cc(F)c3)C2)cc1` (stereo not drawn): under “polymyxin B 0.75 µg/mL”, the “bacterial growth OD600” value was 0.803.
For `CC(NC(=O)c1ccc(OC2CCN(S(C)(=O)=O)CC2)c(Cl)c1)c1ccccc1` (stereo not drawn), the “bacterial growth OD600” value (polymyxin B 1 µg/mL) was determined as 0.904.
In the case of `Cc1nc2cc(OCc3nc(C(=O)N(C)C)co3)ccc2s1`, the “bacterial growth OD600” value (polymyxin B 1 µg/mL) was 0.924.
Same read-out and setting: as for `Clc1ccccc1Cc1noc(CN2CCCCC2c2ccccn2)n1` (stereo not drawn), the figure is 0.786; as for `COc1ccc(F)c(CN2CC[C@@H](N(C)CCc3ccccn3)[C@H](O)C2)c1`, 1.15; as for `COC(=O)CCC(=O)NC1CC(C)(C)Cc2c1cnn2-c1ccc(C)cc1` (stereo not drawn), 0.853.
Consider `CCC(=O)N[C@@H]1c2ccccc2C2(CCN(Cc3cc(OC)ccc3OC)CC2)[C@H]1OCCOC`, for which the “bacterial growth OD600” value (polymyxin B 0.75 µg/mL) was 0.843.
For `CCN1CCN(C2(C(=O)N(C)Cc3nc(C)cs3)Cc3ccccc3C2)CC1`, the “bacterial growth OD600” value (polymyxin B 0.75 µg/mL) worked out at 0.384.
For the compound `O=C(CCC1CCCN(Cc2cc3c(cc2Cl)OCO3)C1)Nc1ccccc1F` (stereo not drawn), under “polymyxin B 1 µg/mL”, the “bacterial growth OD600” value turned out to be 0.922.
For the compound `CCC(=O)NC1CC(=O)N(CCc2ccc(OC)cc2)C1` (stereo not drawn), the “bacterial growth OD600” value (polymyxin B 1 µg/mL) stood at 0.918.
Consider `CC(=O)NCC(=O)N1CCC(C2CCN(Cc3cccc(F)c3F)CC2)C1` (stereo not drawn), for which the “bacterial growth OD600” value (polymyxin B 0.75 µg/mL) stood at 0.839.
For the compound `Cc1ccc(Cl)cc1N1CCN(Cc2nc(-c3ccccn3)no2)CC1`, the “bacterial growth OD600” value (polymyxin B 1 µg/mL) is 0.591.
Regarding `CC(=O)Nc1ccc(CN2Cc3cc(Cl)ccc3OC(C)C2)s1` (stereo not drawn), the “bacterial growth OD600” value (polymyxin B 0.75 µg/mL) amounted to 0.329.
As to `CCOc1ccccc1CN1CCC(O)(Cc2cc(-c3ccccc3)no2)CC1`, for the setting “polymyxin B 1 µg/mL”, the “bacterial growth OD600” value amounted to 0.895.
With `CC(C)C(O)C1CCN(C(=O)c2csc3nc(-c4ccc(F)cc4)cn23)CC1` (stereo not drawn), under “polymyxin B 1 µg/mL”, the “bacterial growth OD600” value was 0.98.
Take `COCCn1cnc2cc(NC(=O)C3CCCCC3)cc(C(=O)N3CCc4sccc4C3)c21`: the “bacterial growth OD600” value (polymyxin B 0.75 µg/mL) was determined as 0.721.
On to `COc1cc(C2CCN(CC3CC3)c3ccccc3S2)cc(OC)c1OC` (stereo not drawn), for which the “bacterial growth OD600” value (polymyxin B 0.75 µg/mL) is 0.745.
In the case of `Cc1cc(F)ccc1NC(=O)CCC1CCCN(C(=O)c2coc3c2C(=O)CCC3)C1` (stereo not drawn), the “bacterial growth OD600” value (polymyxin B 1 µg/mL) was determined as 0.932.
As for `CN1C(=O)CC(CC(=O)N2CCC(Oc3cccnc3)CC2)(c2ccc(-c3ccccc3)cc2)C1=O` (stereo not drawn), for the setting “polymyxin B 0.75 µg/mL”, the “bacterial growth OD600” value worked out at 0.002.
Take `COCCC(=O)NCc1ccc2[nH]c(-c3ccc(F)cc3)c(C)c2c1`: the “bacterial growth OD600” value (polymyxin B 1 µg/mL) stood at 0.81.
On the same count and under the same terms, as for `CCn1cc(CN2CCC(C(=O)Nc3ccc(Oc4cccnc4)cc3)CC2)c(C)n1`, the figure is 0.891.
As for `CC(CNC1CCN(c2ccc(C(=O)NCc3ccc4c(c3)OCO4)cc2)CC1)Oc1cccnc1` (stereo not drawn), the “bacterial growth OD600” value (polymyxin B 0.75 µg/mL) amounted to 0.843.
With `CC(c1nccs1)N(C)C(=O)c1csc2nc(-c3ccccc3Cl)cn12` (stereo not drawn), the “bacterial growth OD600” value (polymyxin B 1 µg/mL) came out at 0.148.
The same measure, in the same setting: the same measure for `CC(C)(C)NC(=O)c1cc(Cl)ccc1OC1CCN(Cc2cccnc2)CC1`: 1.04.
On to `O=C(NCc1cccnc1Oc1ccccc1)C1CCC1`, for which, for the setting “polymyxin B 0.75 µg/mL”, the “bacterial growth OD600” value was determined as 0.816.
